Laboratory results published in patent publication US20150344535A1, “NEUROTROPHIN-TYROSINE KINASE RECEPTOR SIGNALING” (THE UNIVERSITY OF QUEENSLAND, priority 2012, published 2015).
No constants are given. Whether binding was seen depends on the method and setting. Binding seen in cells or lysates may run through a third protein. Some binding calls cover weakened binding; strength is not graded here.

Protein sequences, listed by entry. Tags and fused reporters are not part of them. Lines headed by an entry give the natural chain unless they say otherwise; changes in a name come on top. Chains listed by the source or under a name are the forms on record and can include a tag or linker.
TrkB endogenously expressed in the motor neuron-like cell line NSC-34 (P15209, form named): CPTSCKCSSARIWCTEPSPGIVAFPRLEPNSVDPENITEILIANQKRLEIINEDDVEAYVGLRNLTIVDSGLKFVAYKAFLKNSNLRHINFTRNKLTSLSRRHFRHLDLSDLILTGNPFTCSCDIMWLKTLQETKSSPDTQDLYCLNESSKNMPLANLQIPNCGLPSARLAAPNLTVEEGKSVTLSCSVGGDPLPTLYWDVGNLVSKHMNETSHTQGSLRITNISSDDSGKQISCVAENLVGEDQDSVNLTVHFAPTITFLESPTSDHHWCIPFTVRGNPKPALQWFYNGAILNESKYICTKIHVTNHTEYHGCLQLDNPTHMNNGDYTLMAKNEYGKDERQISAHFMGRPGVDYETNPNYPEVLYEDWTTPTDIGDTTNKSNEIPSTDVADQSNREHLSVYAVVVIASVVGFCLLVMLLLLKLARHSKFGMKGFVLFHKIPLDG

Experiments:
[1] = target: TrkB endogenously expressed in the motor neuron-like cell line NSC-34 (UniProt P15209); assay: pull-down with biotinylated peptide, Western blot
[2] = target: TrkB endogenously expressed in the motor neuron-like cell line NSC-34 (UniProt P15209); assay: pull-down with biotinylated peptide from NSC-34 lysate, Western blot

In the case of KRWNSCKQNKQGANSRPVNQTPPPEGEKL (amino terminus labelled with biotin via a six-carbon spacer) [biotinylated c29 peptide], the binding [1] is reported as “binds” and the binding [2] is reported as “binds”.
